Our source for the binding values is publication PMC7914341.

These are yes or no findings as the source states them, for the method shown. Binding seen in cells or lysates may run through a third protein. Binding calls can cover weak binding; strength is not graded here. Sequences can lack the tags named with a protein.

The experiment addresses T1, Flag-tagged human PRLR S1a isoform (PRLR-SF) (human) (UniProt P16471).
T1 sequence: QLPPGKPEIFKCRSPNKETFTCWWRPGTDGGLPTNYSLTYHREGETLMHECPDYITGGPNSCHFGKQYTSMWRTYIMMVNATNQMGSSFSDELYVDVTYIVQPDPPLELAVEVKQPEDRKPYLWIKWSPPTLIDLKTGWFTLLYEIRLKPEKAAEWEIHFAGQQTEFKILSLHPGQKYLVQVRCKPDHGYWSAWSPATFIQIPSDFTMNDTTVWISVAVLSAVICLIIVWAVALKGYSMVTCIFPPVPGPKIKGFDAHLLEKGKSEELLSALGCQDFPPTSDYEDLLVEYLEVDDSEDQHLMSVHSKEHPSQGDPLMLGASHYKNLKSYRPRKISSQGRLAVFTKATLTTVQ
In words: co-IP; AsPC-1 cells co-transfected with HA-tagged NEK9 and Flag-tagged PRLR; lysates incubated with anti-HA or anti-Flag antibody or control IgG coupled beads overnight at 4 C; western blotting.

Take HA-tagged human NEK9 (enzyme): the binding entry is “binds”.
